# Library screen at single concentrations

Sequences of proteins named here, by UniProt entry; tags and fusion partners are left off.
UniProt I6X8D2, whole entry: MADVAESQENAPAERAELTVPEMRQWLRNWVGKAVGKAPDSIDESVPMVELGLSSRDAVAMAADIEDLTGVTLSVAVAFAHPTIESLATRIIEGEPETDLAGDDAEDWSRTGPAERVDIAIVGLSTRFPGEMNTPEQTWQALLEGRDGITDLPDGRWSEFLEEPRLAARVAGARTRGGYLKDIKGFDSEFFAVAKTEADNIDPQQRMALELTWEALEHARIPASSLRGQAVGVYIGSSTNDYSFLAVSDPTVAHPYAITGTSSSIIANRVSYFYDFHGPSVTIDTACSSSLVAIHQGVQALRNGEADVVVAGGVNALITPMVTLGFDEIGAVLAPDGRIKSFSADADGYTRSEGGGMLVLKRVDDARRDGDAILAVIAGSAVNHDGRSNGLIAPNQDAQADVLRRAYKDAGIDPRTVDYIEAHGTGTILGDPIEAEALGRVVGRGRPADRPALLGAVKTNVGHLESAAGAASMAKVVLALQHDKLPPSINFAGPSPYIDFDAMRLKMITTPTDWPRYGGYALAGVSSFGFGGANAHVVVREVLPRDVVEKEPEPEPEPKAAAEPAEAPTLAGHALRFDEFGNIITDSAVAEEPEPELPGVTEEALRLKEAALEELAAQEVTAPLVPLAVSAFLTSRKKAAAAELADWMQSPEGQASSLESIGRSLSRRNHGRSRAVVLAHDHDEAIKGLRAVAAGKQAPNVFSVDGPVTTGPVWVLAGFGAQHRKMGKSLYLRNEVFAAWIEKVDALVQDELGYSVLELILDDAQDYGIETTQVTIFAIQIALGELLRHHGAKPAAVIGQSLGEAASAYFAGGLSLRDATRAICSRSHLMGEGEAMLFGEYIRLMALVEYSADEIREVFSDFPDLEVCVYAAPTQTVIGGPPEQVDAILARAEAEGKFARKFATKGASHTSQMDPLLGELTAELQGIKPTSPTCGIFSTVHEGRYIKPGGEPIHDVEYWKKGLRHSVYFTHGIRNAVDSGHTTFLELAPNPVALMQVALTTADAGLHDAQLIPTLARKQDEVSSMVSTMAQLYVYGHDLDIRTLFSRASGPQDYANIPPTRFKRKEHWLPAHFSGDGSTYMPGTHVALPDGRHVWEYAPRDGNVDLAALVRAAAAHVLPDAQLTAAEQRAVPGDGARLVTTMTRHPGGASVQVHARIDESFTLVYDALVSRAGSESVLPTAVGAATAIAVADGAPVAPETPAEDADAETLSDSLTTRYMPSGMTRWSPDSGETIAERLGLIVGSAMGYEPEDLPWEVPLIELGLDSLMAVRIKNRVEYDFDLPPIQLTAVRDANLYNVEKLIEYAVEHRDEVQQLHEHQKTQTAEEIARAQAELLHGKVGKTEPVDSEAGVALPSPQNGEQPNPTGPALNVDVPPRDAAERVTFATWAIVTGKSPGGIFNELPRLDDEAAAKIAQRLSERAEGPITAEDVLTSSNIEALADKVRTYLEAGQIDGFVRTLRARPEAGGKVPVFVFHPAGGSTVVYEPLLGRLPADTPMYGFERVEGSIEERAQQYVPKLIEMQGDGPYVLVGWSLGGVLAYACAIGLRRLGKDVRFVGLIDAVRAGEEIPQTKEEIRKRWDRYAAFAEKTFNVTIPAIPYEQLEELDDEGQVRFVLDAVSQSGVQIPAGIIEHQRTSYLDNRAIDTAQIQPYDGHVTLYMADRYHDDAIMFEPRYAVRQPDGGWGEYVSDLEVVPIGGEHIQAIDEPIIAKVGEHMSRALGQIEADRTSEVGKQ

Measurements from “University of Dundee, Small-Polar-MMV Screening Library” (2021), ChEMBL document CHEMBL3988442.

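Enzyme assay of the thioesterase domain of polyketide synthase 13; the read-out is not stated. Target: Polyketide synthase Pks13, Mycobacterium tuberculosis (UniProt I6X8D2). Tested at 30 µM. The record gives no direction; the compounds picked for IC50 retests had high values, so higher reads as stronger inhibition. About 67,000 compounds were tested under these conditions; 0.46% (about 300) showed 50% or more at least once.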

The filed quantity is “Percent Effect” (%).
The controls that fix the scale are not given in the record; negative values are as filed.
Compounds were drawn at random from those tested, without regard to their results.

| # | Compound | effect |
|---|---|---|
| 1 | `CCOCC1COCCC12CCN(C(=O)C1=CCCCC1)CC2` (stereo not drawn) | -7.98% |
| 2 | `CN(Cc1csc(-c2cccs2)n1)C(=O)CN1CCOC1=O` | 7.25% |
| 3 | `CCOCC(=O)Nc1nccn1Cc1ccccc1Cl` | -7.588% |
| 4 | `Fc1ccc2c(c1)CCC2NCc1ccc(N2CCOCC2)cc1` (stereo not drawn) | -5.894% |
| 5 | `O=S(=O)(c1cccnc1)N1C[C@@H]2CC[C@H](C1)N(Cc1ccccn1)C2` | -5.819% |
| 6 | `CCO[C@H]1COC[C@@H]1NC(=O)CCc1nc(-c2ccccc2)no1` | -22.84% |
| 7 | `Cc1cnn(CC2CCCCN2Cc2noc(C3CC3)n2)c1` (stereo not drawn) | -11.66% |
| 8 | `CC(C)CN1CC2(CCN(C(=O)c3cn4cccnc4n3)CC2)CC1=O` | 7.109% |
| 9 | `O=C1CCC2(CCN(S(=O)(=O)c3ccccc3)CC2)N1CC1CC1` | -4.665% |
| 10 | `COCCN1CCN(Cc2ccco2)Cc2ccc(C)nc21` | -9.369% |
| 11 | `COCCN(Cc1ccccc1)C(=O)c1csc(-c2nnc[nH]2)n1` | -32.54% |
| 12 | `Cc1cc(C)nc(N2CCC(c3noc(C)n3)CC2)n1` | 15.19% |
| 13 | `c1ccc(OCCN2CCN(c3ncnc4[nH]ccc34)CC2)cc1` | -31.21% |
| 14 | `Cc1ccoc1C(=O)N1C[C@@H](OCC2CC2)[C@H]2OCCC[C@H]21` | -12.93% |
| 15 | `COc1ccc2c(C)c(C(=O)NC3CCOCC3)oc2c1` | -29.83% |
| 16 | `CCN(CC)CCCN1CCC(NC(=O)OC(C)(C)C)CC1` | -30.06% |
| 17 | `CC(=O)Nc1ccc(CNCc2cccnc2N(C)C)cc1` | -4.591% |
| 18 | `Cc1nn(C)c(C)c1C1CCCN1Cc1cccc(OCC(N)=O)c1` (stereo not drawn) | -3.929% |
| 19 | `Cn1cc(CN2CCCC3(COCCN(Cc4c[nH]nn4)C3)C2)cn1` (stereo not drawn) | -40.54% |
| 20 | `COCc1ncc(CN2CCC(Oc3ccccc3C)CC2)cn1` | -22.86% |
| 21 | `O=C(c1ccc(F)c(F)c1)N1CCCCC1c1nc[nH]n1` (stereo not drawn) | -30.62% |
| 22 | `NC(=O)CCC1CCCN(c2ccc3c(Cl)ccnc3c2F)C1` (stereo not drawn) | -38.11% |
| 23 | `CC(C)c1nc(CN2CCCC2Cn2cccn2)no1` (stereo not drawn) | 4.322% |
| 24 | `O=C(Cc1cccc(F)c1)NCCNCc1ccco1` | -16.21% |
| 25 | `CCc1ncc(C(=O)N(C)CC2Cc3ccccc3O2)cn1` (stereo not drawn) | -20.68% |
| 26 | `Cc1nc(C(F)(F)F)nc(N2CCC(O)(C(=O)O)CC2)c1C` | -35.55% |
| 27 | `COc1ccc(Cl)cc1NC(=O)CCC1CCCN(Cc2ncon2)C1` (stereo not drawn) | -9.579% |
| 28 | `COCCN1C(=O)C[C@@H]2[C@H]1CCN2C(=O)c1ccc[nH]1` | -9.688% |
| 29 | `Cc1nn(C)c(C)c1CC(=O)N1CCC(Nc2cccnn2)CC1` | -11.17% |
| 30 | `O=S1(=O)c2ccccc2C(O)CN1CCO` (stereo not drawn) | 2.286% |
| 31 | `CCCS(=O)(=O)N1CCN(c2ccc3nnc(CC)n3n2)CC1` | 6.483% |
| 32 | `O=S1(=O)N=C(SCc2ccc(Cl)cc2)Nc2ccc(F)cc21` | -11% |
| 33 | `CCNC(=O)C1CCN(c2cc(-c3ccccc3)nc3cc(C)nn23)C1` (stereo not drawn) | -15.93% |
| 34 | `Cc1ccc(CNC(=O)NC2CCCN(c3ncccn3)C2)cn1` (stereo not drawn) | 0.2583% |
| 35 | `c1ccc(-c2ncc3c(n2)C2(CCN(c4ncccn4)C2)COC3)cc1` (stereo not drawn) | -9.706% |
| 36 | `CN(C)C(=O)[C@H]1C[C@@H]2CCN(C3CCOCC3)C[C@@H]2O1` | -14.72% |
| 37 | `Cc1cc(C(=O)N2CCc3c(ncn3CCc3ccccc3)C2)on1` | -30.56% |
| 38 | `CCc1cnc(NCC(c2cccnc2)N2CCOCC2)nc1` (stereo not drawn) | -30.76% |
| 39 | `Cc1cc2n(n1)[C@@H](C(F)(F)F)C[C@@H](C1CCN(C(=O)C3CC3)CC1)N2` | -9.196% |
| 40 | `CS(=O)(=O)N1CCOCC12CCN(Cc1ccc(F)cc1)CC2` | 3.034% |
| 41 | `Cn1c(CN2CCN(CC3CCCO3)CC2)nc2ccccc21` (stereo not drawn) | -10.35% |
| 42 | `CCCn1c(C)c(CC(=O)NCCNC(C)=O)c2c1CC(C)(C)CC2=O` | -19.67% |
| 43 | `N#Cc1cccc(C(=O)N2C[C@H](CO)C[C@H](CN3CCCC3)C2)c1` | 1.463% |
| 44 | `O=C(CNc1ccc(OC2CCOC2)cc1)NCc1cccs1` (stereo not drawn) | -8.322% |
| 45 | `O=C(Cc1ccccn1)N1CCn2cc(Cn3cncn3)nc2C1` | 8.899% |
| 46 | `CCCOc1c(CNC2CCSC2)cccc1OC` (stereo not drawn) | -2.91% |
| 47 | `O=C(CC1CC1)N[C@@H]1CN(Cc2ccoc2)C[C@@H]2CCCO[C@@H]21` | 23.3% |
| 48 | `O=C(c1cccnc1N1CCOCC1)N1CCCC(n2cccn2)C1` (stereo not drawn) | -11.45% |
| 49 | `O=C(Nc1ccccc1)N1CCC(N2Cc3ncccc3C2=O)CC1` | -8.174% |
| 50 | `Cn1nc(C#N)c2c1CN(C(=O)c1c[nH]cn1)CCC2` | -23.63% |
| 51 | `Cc1cn2c(n1)C(CNCC1=Cc3cc(Cl)ccc3OC1)CCC2` (stereo not drawn) | -0.3429% |
| 52 | `Cc1nc(C2CCCN2Cc2cc(Cl)c3c(c2)OCCO3)no1` (stereo not drawn) | -6.163% |
| 53 | `Cc1noc(C)c1C(=O)NCC(c1ccc(F)cc1)N(C)C` (stereo not drawn) | 10.53% |
| 54 | `Cc1ccccc1C(C(=O)NCCSC(F)(F)F)N(C)C` (stereo not drawn) | -15.46% |
| 55 | `CC(C)c1nc(CN2CCC(CO)CC2)cs1` | -8.99% |
| 56 | `COc1cc(NC(=O)c2cccc(N(C)C)c2)cc(OC)c1` | -40.49% |
| 57 | `CC(C)Cc1nc(CCn2ccc(=O)[nH]c2=O)n(-c2ccccn2)n1` | 13.97% |
| 58 | `Cc1[nH]/c(=N\C(=O)c2csc(NC3CC3)n2)sc1C` | -11.98% |
| 59 | `Cc1cc(C(=O)NCCN2CCN(S(C)(=O)=O)CC2)no1` | -2.644% |
| 60 | `O=C(NCCc1cnccn1)c1ccc(S(=O)(=O)NC2CCC2)cc1` | -13.26% |
| 61 | `CC(C)c1nccn1C1CCCN(C(=O)c2ccnc(N(C)C)c2)C1` (stereo not drawn) | -5.32% |
| 62 | `Cc1nc(-c2cnn(C)c2)sc1C(=O)NCc1ccc(C)n1C` | -9.814% |
| 63 | `CC(NC(=O)N1CCC(OCc2ccccc2)CC1)c1nncn1C` (stereo not drawn) | -15.13% |
| 64 | `COc1cccc2c1ccn2CCC(=O)Nc1c2c(nn1C)CSC2` | 9.966% |
| 65 | `CCN1C(=O)CC[C@@H]2[C@H]1CCN2C(=O)Cc1cccc(OC)c1` | -46.59% |
| 66 | `Brc1cccnc1OC1CCNCC1` | -20.31% |
| 67 | `COC(=O)c1ccc(C(=O)NCC2(O)CCOCC2)cc1` | 20.37% |
| 68 | `Cc1ccnn1C(C)C(=O)Nc1cc(-c2ccncc2)[nH]n1` (stereo not drawn) | -17.39% |
| 69 | `Cc1nn(C)c(N2CCCN(C)CC2)c1CNC(=O)CCC(C)C` | -10.95% |
| 70 | `CN(C)C(=O)c1nn(C)c2c1CN(Cc1ccc(F)cc1)C2` | -11.84% |

For reference, 4 entries once more:

| Compound | effect |
|---|---|
| `O=C(CC1CC1)N[C@@H]1CN(Cc2ccoc2)C[C@@H]2CCCO[C@@H]21` | 23.3% |
| `c1ccc(OCCN2CCN(c3ncnc4[nH]ccc34)CC2)cc1` | -31.21% |
| `CCc1ncc(C(=O)N(C)CC2Cc3ccccc3O2)cn1` (stereo not drawn) | -20.68% |
| `CC(C)Cc1nc(CCn2ccc(=O)[nH]c2=O)n(-c2ccccn2)n1` | 13.97% |